Measurements as given in the supplement of paper PMC12067093, “Discovery and optimisation of a covalent ligand for TRIM25 and its application to targeted protein ubiquitination” (Chemical Science, 2025).
The other results are listed elsewhere or left out.

Sequences of proteins named here, by UniProt entry; tags and fusion partners are left off. A change or cut given only in a name is not applied to a line headed by its entry.
UniProt Q96FV9: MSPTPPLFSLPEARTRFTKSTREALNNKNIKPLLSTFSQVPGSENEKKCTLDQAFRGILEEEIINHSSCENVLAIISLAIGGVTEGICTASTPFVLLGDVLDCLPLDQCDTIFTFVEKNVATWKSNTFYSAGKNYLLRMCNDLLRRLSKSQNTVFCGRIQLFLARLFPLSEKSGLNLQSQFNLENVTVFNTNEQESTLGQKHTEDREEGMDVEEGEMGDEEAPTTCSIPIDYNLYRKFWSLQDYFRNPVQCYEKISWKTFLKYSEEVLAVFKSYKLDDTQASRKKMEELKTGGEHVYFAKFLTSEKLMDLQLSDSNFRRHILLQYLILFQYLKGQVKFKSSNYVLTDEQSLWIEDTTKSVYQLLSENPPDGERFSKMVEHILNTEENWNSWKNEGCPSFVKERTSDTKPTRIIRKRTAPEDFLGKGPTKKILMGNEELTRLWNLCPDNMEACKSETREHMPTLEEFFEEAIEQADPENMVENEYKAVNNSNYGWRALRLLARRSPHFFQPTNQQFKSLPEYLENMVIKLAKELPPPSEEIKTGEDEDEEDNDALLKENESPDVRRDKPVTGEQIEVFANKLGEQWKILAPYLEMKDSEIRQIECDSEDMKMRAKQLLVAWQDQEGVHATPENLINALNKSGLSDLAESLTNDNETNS
UniProt Q6P9B6: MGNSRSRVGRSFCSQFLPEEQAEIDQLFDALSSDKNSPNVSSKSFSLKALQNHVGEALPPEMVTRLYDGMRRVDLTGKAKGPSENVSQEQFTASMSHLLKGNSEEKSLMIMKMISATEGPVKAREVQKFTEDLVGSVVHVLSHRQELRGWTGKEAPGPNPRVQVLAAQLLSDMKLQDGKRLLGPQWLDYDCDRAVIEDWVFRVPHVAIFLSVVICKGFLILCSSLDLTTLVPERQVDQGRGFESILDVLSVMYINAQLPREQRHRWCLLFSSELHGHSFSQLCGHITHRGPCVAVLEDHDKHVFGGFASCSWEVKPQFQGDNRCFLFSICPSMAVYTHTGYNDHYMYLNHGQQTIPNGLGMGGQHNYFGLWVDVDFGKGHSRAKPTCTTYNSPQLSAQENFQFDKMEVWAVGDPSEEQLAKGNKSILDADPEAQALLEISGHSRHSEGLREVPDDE
UniProt P07996: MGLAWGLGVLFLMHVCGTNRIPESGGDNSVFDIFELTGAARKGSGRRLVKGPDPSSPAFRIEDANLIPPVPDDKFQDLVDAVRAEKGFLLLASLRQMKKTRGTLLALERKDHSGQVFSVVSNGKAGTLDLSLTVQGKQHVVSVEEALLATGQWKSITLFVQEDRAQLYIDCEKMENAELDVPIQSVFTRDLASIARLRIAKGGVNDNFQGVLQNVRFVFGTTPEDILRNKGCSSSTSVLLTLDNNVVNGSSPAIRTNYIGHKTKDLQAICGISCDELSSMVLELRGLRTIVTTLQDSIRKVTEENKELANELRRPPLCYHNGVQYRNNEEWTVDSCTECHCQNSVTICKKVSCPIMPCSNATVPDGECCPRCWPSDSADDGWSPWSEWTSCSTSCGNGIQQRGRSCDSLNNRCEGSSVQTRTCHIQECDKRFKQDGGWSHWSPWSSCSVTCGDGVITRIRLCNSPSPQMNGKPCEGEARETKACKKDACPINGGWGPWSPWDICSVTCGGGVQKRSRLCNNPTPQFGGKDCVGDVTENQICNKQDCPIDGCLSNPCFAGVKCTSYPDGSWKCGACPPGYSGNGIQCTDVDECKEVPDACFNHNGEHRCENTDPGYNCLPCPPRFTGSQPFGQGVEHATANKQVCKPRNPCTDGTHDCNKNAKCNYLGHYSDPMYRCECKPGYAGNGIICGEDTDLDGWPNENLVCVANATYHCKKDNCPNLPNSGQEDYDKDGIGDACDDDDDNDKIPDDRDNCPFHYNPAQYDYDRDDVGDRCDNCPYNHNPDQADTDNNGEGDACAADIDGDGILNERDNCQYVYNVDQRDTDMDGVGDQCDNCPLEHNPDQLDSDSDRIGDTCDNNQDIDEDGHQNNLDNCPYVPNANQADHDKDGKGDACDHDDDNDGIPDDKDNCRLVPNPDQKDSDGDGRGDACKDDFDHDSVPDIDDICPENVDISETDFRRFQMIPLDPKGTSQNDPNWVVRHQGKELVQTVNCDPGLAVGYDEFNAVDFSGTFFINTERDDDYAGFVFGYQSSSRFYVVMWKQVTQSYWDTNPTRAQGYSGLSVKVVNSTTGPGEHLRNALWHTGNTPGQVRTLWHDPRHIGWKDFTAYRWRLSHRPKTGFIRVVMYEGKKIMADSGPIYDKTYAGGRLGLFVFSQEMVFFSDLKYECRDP
UniProt Q8NHU6: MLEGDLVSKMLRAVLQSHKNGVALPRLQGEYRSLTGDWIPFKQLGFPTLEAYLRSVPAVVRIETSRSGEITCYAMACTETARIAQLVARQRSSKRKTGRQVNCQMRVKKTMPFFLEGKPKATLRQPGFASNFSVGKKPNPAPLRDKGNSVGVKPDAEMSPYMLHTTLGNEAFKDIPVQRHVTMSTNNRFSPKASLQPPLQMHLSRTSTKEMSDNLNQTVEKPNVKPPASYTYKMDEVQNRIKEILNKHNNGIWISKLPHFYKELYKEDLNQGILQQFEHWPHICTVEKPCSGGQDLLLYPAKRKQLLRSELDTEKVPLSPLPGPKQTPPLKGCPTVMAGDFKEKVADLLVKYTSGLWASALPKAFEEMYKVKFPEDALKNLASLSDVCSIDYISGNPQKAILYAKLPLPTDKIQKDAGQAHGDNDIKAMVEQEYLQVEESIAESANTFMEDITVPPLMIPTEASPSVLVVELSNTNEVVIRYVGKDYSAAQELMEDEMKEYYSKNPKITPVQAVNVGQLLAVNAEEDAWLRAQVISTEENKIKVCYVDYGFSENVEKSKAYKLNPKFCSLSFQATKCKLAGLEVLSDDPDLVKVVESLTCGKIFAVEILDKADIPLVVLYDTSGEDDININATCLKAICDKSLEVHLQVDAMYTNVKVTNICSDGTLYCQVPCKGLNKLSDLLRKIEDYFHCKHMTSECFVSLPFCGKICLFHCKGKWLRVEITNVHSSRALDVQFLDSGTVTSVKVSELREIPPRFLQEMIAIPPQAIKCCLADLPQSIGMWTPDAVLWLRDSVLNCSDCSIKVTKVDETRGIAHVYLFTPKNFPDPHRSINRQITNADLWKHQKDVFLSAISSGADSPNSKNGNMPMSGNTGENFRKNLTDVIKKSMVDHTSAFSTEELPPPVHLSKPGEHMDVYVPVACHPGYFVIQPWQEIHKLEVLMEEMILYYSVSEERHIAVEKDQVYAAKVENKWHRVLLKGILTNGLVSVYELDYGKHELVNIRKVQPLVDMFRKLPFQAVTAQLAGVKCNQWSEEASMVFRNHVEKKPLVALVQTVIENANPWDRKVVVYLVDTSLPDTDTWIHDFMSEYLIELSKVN
UniProt Q8WUH2: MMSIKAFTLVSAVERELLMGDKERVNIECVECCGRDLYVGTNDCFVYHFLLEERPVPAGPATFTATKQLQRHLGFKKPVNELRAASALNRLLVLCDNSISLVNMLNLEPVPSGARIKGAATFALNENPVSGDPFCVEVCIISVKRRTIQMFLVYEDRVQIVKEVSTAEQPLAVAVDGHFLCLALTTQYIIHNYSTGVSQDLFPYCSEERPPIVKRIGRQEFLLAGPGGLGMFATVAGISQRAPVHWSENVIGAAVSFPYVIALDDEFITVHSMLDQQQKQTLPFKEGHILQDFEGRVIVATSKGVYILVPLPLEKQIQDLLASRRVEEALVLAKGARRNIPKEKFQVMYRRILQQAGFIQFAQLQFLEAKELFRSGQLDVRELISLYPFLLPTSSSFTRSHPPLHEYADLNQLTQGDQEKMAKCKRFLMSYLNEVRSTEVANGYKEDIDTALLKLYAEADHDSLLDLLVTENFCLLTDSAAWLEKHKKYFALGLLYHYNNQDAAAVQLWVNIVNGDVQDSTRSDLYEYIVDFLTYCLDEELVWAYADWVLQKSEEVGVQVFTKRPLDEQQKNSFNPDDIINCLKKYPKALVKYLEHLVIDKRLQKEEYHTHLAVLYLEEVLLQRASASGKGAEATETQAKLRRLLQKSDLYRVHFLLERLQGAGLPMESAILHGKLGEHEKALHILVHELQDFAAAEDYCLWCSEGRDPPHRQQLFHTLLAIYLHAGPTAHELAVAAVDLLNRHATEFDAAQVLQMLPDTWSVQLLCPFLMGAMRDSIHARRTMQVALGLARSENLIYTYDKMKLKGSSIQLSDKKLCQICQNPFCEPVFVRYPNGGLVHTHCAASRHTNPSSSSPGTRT
UniProt Q04726: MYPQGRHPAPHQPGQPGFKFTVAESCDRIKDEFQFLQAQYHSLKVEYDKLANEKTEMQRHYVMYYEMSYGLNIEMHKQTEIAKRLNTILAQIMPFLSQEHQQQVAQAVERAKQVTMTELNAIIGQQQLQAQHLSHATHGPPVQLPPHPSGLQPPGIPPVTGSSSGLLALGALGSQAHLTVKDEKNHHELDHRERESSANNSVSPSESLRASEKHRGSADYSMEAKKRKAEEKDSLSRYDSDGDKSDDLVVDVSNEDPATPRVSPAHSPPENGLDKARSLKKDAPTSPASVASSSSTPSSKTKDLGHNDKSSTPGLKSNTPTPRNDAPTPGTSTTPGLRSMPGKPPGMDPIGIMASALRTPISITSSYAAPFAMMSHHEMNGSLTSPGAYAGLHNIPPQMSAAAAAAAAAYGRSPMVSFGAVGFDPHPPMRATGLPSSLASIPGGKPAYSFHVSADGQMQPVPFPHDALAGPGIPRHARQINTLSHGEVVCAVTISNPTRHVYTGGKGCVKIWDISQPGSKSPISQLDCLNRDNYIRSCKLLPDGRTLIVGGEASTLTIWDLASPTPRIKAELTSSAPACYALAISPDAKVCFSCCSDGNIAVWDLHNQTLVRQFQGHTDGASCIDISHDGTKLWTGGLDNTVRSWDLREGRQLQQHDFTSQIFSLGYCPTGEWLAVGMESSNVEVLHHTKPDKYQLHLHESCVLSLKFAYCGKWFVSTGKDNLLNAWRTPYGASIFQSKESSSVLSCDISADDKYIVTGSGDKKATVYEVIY
UniProt Q9UGI8: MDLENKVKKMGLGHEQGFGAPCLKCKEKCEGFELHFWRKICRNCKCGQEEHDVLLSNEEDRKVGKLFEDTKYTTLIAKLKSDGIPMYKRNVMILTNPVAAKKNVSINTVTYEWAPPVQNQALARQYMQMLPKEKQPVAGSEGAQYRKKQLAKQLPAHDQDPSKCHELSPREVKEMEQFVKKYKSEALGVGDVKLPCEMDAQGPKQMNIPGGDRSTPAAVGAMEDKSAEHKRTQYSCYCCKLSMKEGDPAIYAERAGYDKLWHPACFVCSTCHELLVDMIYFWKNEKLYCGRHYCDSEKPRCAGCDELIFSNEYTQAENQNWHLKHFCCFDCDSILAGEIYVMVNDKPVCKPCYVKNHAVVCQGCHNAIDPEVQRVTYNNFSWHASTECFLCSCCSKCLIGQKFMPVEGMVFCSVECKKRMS
UniProt O43294, whole entry, looked up: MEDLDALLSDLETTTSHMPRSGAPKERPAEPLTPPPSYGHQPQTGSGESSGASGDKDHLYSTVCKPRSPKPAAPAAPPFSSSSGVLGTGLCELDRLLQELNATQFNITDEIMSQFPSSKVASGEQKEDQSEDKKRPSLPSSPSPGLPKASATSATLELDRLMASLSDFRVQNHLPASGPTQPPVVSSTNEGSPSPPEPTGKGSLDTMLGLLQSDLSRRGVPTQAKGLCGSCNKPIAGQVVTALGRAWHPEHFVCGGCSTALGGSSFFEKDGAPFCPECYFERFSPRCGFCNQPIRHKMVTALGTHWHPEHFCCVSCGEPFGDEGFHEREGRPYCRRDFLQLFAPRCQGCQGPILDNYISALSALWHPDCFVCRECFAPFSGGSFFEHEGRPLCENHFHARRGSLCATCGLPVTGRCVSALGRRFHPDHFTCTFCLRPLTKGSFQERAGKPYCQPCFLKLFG
UniProt Q15554: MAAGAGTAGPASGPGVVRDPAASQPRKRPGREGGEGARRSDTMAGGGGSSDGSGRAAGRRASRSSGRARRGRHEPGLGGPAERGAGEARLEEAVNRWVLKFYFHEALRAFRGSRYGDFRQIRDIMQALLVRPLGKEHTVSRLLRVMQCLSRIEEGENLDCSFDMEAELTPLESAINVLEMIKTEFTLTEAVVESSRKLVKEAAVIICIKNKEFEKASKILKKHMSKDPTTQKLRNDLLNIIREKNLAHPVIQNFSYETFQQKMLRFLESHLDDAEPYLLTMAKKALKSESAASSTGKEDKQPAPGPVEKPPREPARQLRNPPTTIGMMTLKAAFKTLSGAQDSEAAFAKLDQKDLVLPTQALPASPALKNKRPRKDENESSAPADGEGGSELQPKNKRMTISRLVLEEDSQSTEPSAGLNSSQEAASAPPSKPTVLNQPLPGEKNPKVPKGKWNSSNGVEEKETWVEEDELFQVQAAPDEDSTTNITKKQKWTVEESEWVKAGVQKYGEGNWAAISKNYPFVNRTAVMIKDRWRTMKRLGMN

Compound: CC1Cc2ccccc2N1C(=O)C1CCCN(C1)C(=O)CCl (mixture of isomers) [TRIM25 ligand 11 (diastereomer mixture)]
Assay: probe-labelled cysteine peptide fold change vs DMSO (competition) (log2 fold change); higher = less target engagement (more negative = stronger competition)
Conditions: THP-1, incubation time: 4 h
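Note: competitive chemoproteomic profiling in live THP-1 cells with an iodoacetamide desthiobiotin (IA-DTB) probe, comparing probe-labelled peptide intensities in compound-treated cells against DMSO-treated controls.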

Target | probe-labelled cysteine peptide fold change (10 µM) | probe-labelled cysteine peptide fold change (50 µM)
THOC1_Q96FV9_49_KCTLDQAFR (UniProt Q96FV9) | -0.153 | -0.229
TLDC1_Q6P9B6_292_GPCVAVLEDHDK (UniProt Q6P9B6) | 0.127 | 0.295
THBS1_P07996_754_IPDDRDNCPFHYNPAQYDYDRDDVGDR (UniProt P07996) | 0.813 | –
THBS1_P07996_171_AQLYIDCEK (UniProt P07996) | 0.482 | 0.376
TDRD7_Q8NHU6_284_EDLNQGILQQFEHWPHICTVEK (UniProt Q8NHU6) | 0.0148 | –
TGFBRAP1_Q8WUH2_582_NSFNPDDIINCLK (UniProt Q8WUH2) | 0.0163 | 0.0519
THEMIS2_Q5TEJ8_395_LEVLGPGQAHGAQGSDVDVLVCQR (UniProt Q5TEJ8) | 0.11 | -0.309
TLE3_Q04726_26_FTVAESCDR (UniProt Q04726) | 0.0783 | 0.196
TGM2_P21980_371_SEGTYCCGPVPVR (UniProt P21980) | -0.0787 | -0.00707
TGS1_Q96RS0_357_ECPASGQSEPR (UniProt Q96RS0) | 0.199 | -0.0313
TES_Q9UGI8_196_LPCEMDAQGPK (UniProt Q9UGI8) | -0.0841 | -0.114
THOC7_Q6I9Y2_90_EIECSIAGAHEK (UniProt Q6I9Y2) | -0.00626 | -0.143
TES_Q9UGI8_196_SEALGVGDVKLPCEMDAQGPK (UniProt Q9UGI8) | -0.416 | -0.379
THBS1_P07996_318_RPPLCYHNGVQYR (UniProt P07996) | 0.286 | 0.202
TGFB1I1_O43294_393_ECFAPFSGGSFFEHEGRPLCENHFHAR (UniProt O43294) | -0.0101 | 0.114
THOC2_Q8NI27_743_DALLDHDLALPLCLLMAQQR (UniProt Q8NI27) | 0.0629 | –
THOC5_Q13769_59_YTCQELQR (UniProt Q13769) | 0.0519 | 0.132
TIAL1_Q01085_205+209_NCTVYCGGIASGLTDQLMR (UniProt Q01085) | 0.161 | –
TDRD3_Q9H7E2_377_CDRPYSR (UniProt Q9H7E2) | -0.0819 | -0.0934
TIMM17B_O60830_17_IVDDCGGAFTMGVIGGGVFQAIK (UniProt O60830) | -0.106 | -0.246

Target | probe-labelled cysteine peptide fold change (10 µM) | probe-labelled cysteine peptide fold change (50 µM)
TERF2_Q15554_207_EAAVIICIK (UniProt Q15554) | -0.0851 | -0.0844
TKFC_Q3LXA3_13+24_LVNSVAGCADDALAGLVACNPNLQLLQGHR (UniProt Q3LXA3) | 0.439 | 0.518
TGFB1I1_O43294_231_GLCGSCNKPIAGQVVTALGR (UniProt O43294) | 0.0114 | -0.0818
THOP1_P52888_246_VEEAFNCR (UniProt P52888) | 0.0401 | -0.177
TEX30_Q5JUR7_21_LLDAVCLVPNK (UniProt Q5JUR7) | 0.108 | -0.0166
TGFBRAP1_Q8WUH2_32_VNIECVECCGR (UniProt Q8WUH2) | -0.0319 | –
TDRD7_Q8NHU6_600_VVESLTCGK (UniProt Q8NHU6) | 0.0226 | 0.127
TIMELESS_Q9UNS1_606_IQDCLLAGQAPQALTLLR (UniProt Q9UNS1) | 0.329 | -0.0231
THOC6_Q86W42_214_EVQTIEVYKHEECSR (UniProt Q86W42) | -0.0305 | 0.0461
TDP1_Q9NUW8_251_PYENISLCQAK (UniProt Q9NUW8) | 0.182 | 0.202
TCF20_Q9UGU0_498_KADSCTNSEGSSQPEEQLK (UniProt Q9UGU0) | -0.164 | -0.173
TECPR2_O15040_282_LESPNSGSCSLPER (UniProt O15040) | -0.0364 | -0.0561
TET3_O43151_1381_GKPWSPCK (UniProt O43151) | -0.294 | –
TDRD7_Q8NHU6_290_PCSGGQDLLLYPAK (UniProt Q8NHU6) | -0.0959 | -0.0814
TES_Q9UGI8_22_MGLGHEQGFGAPCLK (UniProt Q9UGI8) | – | -0.176
TCP1_P17987_218_SQMESMLISGYALNCVVGSQGMPK (UniProt P17987) | -0.0532 | 0.0594
THOC3_Q96J01_306_LWEVQCESPTFTVAWHPK (UniProt Q96J01) | -0.0367 | -0.147
TGFBRAP1_Q8WUH2_33_VNIECVECCGR (UniProt Q8WUH2) | 0.119 | 0.199
TEPSIN_Q96N21_479_DSLFAGMELVACPR (UniProt Q96N21) | 0.22 | -0.145
THYN1_Q9P016_89_QTTCWDGVR (UniProt Q9P016) | -0.0572 | -0.0718

Retrieved one by one from the entries so far (two):
Target | probe-labelled cysteine peptide fold change (10 µM) | probe-labelled cysteine peptide fold change (50 µM)
TDRD7_Q8NHU6_290_PCSGGQDLLLYPAK (UniProt Q8NHU6) | -0.0959 | -0.0814
TERF2_Q15554_207_EAAVIICIK (UniProt Q15554) | -0.0851 | -0.0844
